From PubChem BioAssay AID588590 (National Center for Advancing Translational Sciences (NCATS), 2011)
The whole screen tested about 390,000 compounds, of which about 4,000 (1%) were called active. The shares of active, inactive and inconclusive entries below differ from those in the screen. Calls follow the shape of the dose curve; as a rule, active = well fitted inhibition curve with a large enough effect; inconclusive = small, poorly fitted or top-dose-only effect, or another doubt; inactive = no such curve, though single readings can be large or run the other way. Potencies of inconclusive entries are doubtful fits and often do not repeat.

Chains of the proteins cited; added tags and fusions are not shown. Lines headed by an entry give the natural chain unless they say otherwise; changes in a name come on top.
UniProt Q9UNA4: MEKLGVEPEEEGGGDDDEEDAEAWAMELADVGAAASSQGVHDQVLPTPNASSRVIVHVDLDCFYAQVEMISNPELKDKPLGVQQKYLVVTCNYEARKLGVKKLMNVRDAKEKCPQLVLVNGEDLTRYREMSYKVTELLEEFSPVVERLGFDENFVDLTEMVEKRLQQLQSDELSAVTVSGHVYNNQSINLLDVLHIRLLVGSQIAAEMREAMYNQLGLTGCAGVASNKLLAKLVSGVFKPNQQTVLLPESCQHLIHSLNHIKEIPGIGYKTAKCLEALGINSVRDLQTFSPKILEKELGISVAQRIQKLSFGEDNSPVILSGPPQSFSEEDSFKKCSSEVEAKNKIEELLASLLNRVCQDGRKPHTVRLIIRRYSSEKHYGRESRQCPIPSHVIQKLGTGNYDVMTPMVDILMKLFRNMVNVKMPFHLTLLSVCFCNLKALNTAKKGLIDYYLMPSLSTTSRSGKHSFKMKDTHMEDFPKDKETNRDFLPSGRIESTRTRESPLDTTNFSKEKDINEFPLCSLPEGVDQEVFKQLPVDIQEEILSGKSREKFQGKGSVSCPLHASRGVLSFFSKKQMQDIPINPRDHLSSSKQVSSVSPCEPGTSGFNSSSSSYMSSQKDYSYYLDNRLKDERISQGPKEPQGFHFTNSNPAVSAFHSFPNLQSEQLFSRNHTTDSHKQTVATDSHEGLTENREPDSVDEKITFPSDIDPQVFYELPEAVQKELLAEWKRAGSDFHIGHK

target: DNA polymerase iota (Homo sapiens) (UniProt Q9UNA4); assay: qHTS for Inhibitors of Polymerase Iota; conditions: Pol iota fluorescent replication assay, 10 min; series mostly up to 115 µM
Procedure, shortened: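 Fluorescent replication assay read twice, at 0 min and 10 min after adding 50 nM (final) substrate. Enzyme (10 nM) and compounds were first incubated 15 min at room temperature; enzyme-free buffer wells were negative controls.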
Potency is read from the fitted curve at half-maximal effect.

**Q.** How did the Potency turn out when `CCOC(=O)[C@@H]1[C@H]2COc3ccccc3[C@@H]2N2C(=O)N(c3ccc(Br)cc3)C(=O)[C@]12C` was run?
**A.** The Potency was inconclusive: 89.1 µM [inhibitor, single point].

**Q.** With `Cc1cc(C=O)c(O)cc1O` as the compound, how does the Potency read?
**A.** The Potency was inconclusive: 89.1 µM [inhibitor, single point].

**Q.** `CCN(CC)CCCNC(=O)CN1N=C(c2ccc(OC)cc2)CCC1=O` was tested. Which Potency did it give?
**A.** Its Potency is inconclusive: 89.1 µM [inhibitor, single point].

**Q.** With `Cc1ccc(CNC(=O)c2cc(-c3ccccc3C)n(CC3CC(c4cccc([N+](=O)[O-])c4)=NO3)n2)cc1` (stereo unspecified) as the compound, how does the Potency read?
**A.** Its Potency is inconclusive: 35.5 µM [inhibitor, single point].

**Q.** How did the Potency turn out when `COc1cc2c(NC3CCN(C(C)C)CC3)nc(N3CCCN(C)CC3)nc2cc1OCCOCCN1CCCC1` was run?
**A.** Its Potency is inconclusive: 22.4 µM [inhibitor, full curve, poor fit].

**Q.** Which Potency does the source give for `COc1ccc(C(=O)N2c3ccc(C)cc3C(C)(c3ccccc3)CC2(C)C)cc1` (stereo unspecified) here?
**A.** Its Potency is “inactive”.

**Q.** With `COc1cc(Cl)c(C)cc1NC(=O)Cn1ncc2c3ccccc3n(Cc3ccccc3)c2c1=O` as the compound, how does the Potency read?
**A.** Its Potency is “inactive”.

**Q.** How did the Potency turn out when `C#CCOCCOCCOCCNc1nc(N2CCN(C(=O)C(Cc3cc4ccccc4[nH]3)n3cc(C(N)Cc4ccc(O)cc4)nn3)CC2)nc(N2CCN(C(=O)C(CCC(=O)O)n3cc(C(N)C(C)CC)nn3)CC2)n1` (stereo unspecified) was run?
**A.** The Potency was inconclusive: 39.8 µM [inhibitor, partial curve, poor fit].

**Q.** How did the Potency turn out when `O=C(CSc1nnc(CNC(=O)c2c(F)cccc2Cl)o1)NCc1ccc(F)cc1` was run?
**A.** The Potency was “inactive”.

**Q.** `Cc1ccc(N=C2NC(=O)/C(=C/c3cccn3C)S2)cc1C` was tested. Which Potency did it give?
**A.** Its Potency is “inactive”.

**Q.** `O=C(Nc1cc(S(=O)(=O)Nc2ccccc2Cl)ccc1O)c1cc2c(s1)CCCC2` was tested. Which Potency did it give?
**A.** Its Potency is inconclusive: 89.1 µM [inhibitor, single point].

**Q.** With `O=C(N/N=C/c1ccc([N+](=O)[O-])s1)c1cccc(Br)c1` as the compound, how does the Potency read?
**A.** Its Potency is inconclusive: 25.1 µM [inhibitor, partial curve, poor fit].

**Q.** How did the Potency turn out when `CCc1ccccc1Nc1ccc(C(=O)O)cc1N` was run?
**A.** Its Potency is inconclusive: 22.4 µM [inhibitor, partial curve, poor fit].

**Q.** How did the Potency turn out when `CCC(=O)N1c2ccc(S(=O)(=O)CCC(=O)Nc3ccc(Br)c(C)c3)cc2CC1C` (stereo unspecified) was run?
**A.** The Potency was “inactive”.

**Q.** How did the Potency turn out when `CC1(C)CC(=O)C=C(Nc2cccc(Cl)c2Cl)C1` was run?
**A.** Its Potency is inconclusive: 8.91 µM [inhibitor, full curve, poor fit].

**Q.** Which Potency does the source give for `COc1cccc(NC(=O)c2cnc(SCC(=O)N3CCOCC3)n(C)c2=O)c1` here?
**A.** Its Potency is “inactive”.

**Q.** How did the Potency turn out when `O=C(CSc1ccc2c(c1)OCCO2)Nc1ccc2c(c1)OCO2` was run?
**A.** The Potency was inconclusive: 10 µM [inhibitor, full curve, poor fit].

**Q.** For `CNC(=S)N/N=C/c1cn(CCOc2cccc(OC)c2)c2ccccc12`, which Potency is on record?
**A.** Its Potency is “inactive”.

**Q.** For `O=C(COC(=O)c1ccc2ncsc2c1)Nc1ncc(Cl)cc1Cl`, which Potency is on record?
**A.** The Potency was inconclusive: 56.2 µM [inhibitor, partial curve, poor fit].

**Q.** For `COc1ccc(/C=C(\C#N)c2nc3ccccc3n2C)c(OC)c1`, which Potency is on record?
**A.** Its Potency is inconclusive: 100 µM [inhibitor, single point].

**Q.** How did the Potency turn out when `O=C(O)c1cccc(-n2cccc2C=C2C(=O)c3ccccc3C2=O)c1` was run?
**A.** Its Potency is inconclusive: 14.1 µM [inhibitor, full curve, poor fit].

**Q.** `COc1ccc(Nc2ncnc3c2c(C)c(C)n3CCCN(C)C)cc1` was tested. Which Potency did it give?
**A.** Its Potency is inconclusive: 89.1 µM [inhibitor, single point].

**Q.** `O=S(=O)(CCn1cccc1)CCn1cccc1` was tested. Which Potency did it give?
**A.** The Potency was inconclusive: 22.4 µM [inhibitor, single point].

**Q.** `CC(C)CC(=O)Nc1ccc(-c2nnn(CC(=O)NCc3ccco3)n2)cc1` was tested. Which Potency did it give?
**A.** The Potency was active: 79.4 µM.

**Q.** Which Potency does the source give for `C#CCOCCOCCOCCNc1nc(N2CCN(C(=O)CCCCCCCCCCNC(=O)[C@H](CCCCN)n3cc(CCCC(=O)O)nn3)CC2)nc(N2CCN(C(=O)CCCCCCCCCCNC(=O)[C@H](CCCCN)n3cc(CCCC(=O)O)nn3)CC2)n1` here?
**A.** The Potency was inconclusive: 11.2 µM [inhibitor, partial curve, poor fit].

**Q.** With `Cc1ccc(C)c(N2CCN(C(=O)c3cc(S(=O)(=O)N4CCCCCC4)cn3C)CC2)c1` as the compound, how does the Potency read?
**A.** The Potency was “inactive”.

**Q.** Which Potency does the source give for `CCOCCc1nnc(NC(=O)Cc2c(F)cccc2Cl)s1` here?
**A.** The Potency was “inactive”.

**Q.** `CN(c1ccc(OCC(=O)OCC(=O)Nc2ccc(OC(F)F)cc2)cc1)S(=O)(=O)c1cccs1` was tested. Which Potency did it give?
**A.** Its Potency is inconclusive: 89.1 µM [inhibitor, single point].

**Q.** How did the Potency turn out when `O=C(/C=C\c1ccccc1)NC1CC(=O)N(c2ccccc2)C1` (stereo unspecified) was run?
**A.** Its Potency is “inactive”.

**Q.** Which Potency does the source give for `CCN(C[C@H]1N[C@@](Cc2ccccc2)(C(=O)OC)[C@H]2C(=O)N(C)C(=O)[C@@H]12)C(=O)c1ccc(C)cc1` here?
**A.** Its Potency is inconclusive: 79.4 µM [inhibitor, partial curve, poor fit].

**Q.** For `COc1ccc(-c2nc3c(c(SCC(=O)N4CCCCC4)n2)Cc2c(CO)cnc(C)c2O3)cc1`, which Potency is on record?
**A.** The Potency was “inactive”.

**Q.** For `COC(=O)c1cc(NC(=O)c2ccc3c(c2)NC(=O)c2ccccc2S3)cc(C(=O)OC)c1`, which Potency is on record?
**A.** The Potency was inconclusive: 11.2 µM [inhibitor, partial curve, poor fit].

**Q.** With `O=C(CCc1c[nH]c2ccccc12)NC(Cc1c[nH]c2ccccc12)C(=O)O` (stereo unspecified) as the compound, how does the Potency read?
**A.** The Potency was inconclusive: 0.794 µM [inhibitor, full curve, poor fit].

**Q.** Which Potency does the source give for `CCc1nnc(NC(=O)c2cc(Cl)ccn2)s1` here?
**A.** The Potency was inconclusive: 20 µM [inhibitor, partial curve, poor fit].

**Q.** How did the Potency turn out when `COc1cccc(-n2nnc(-c3nc(-c4ccccc4F)no3)c2C)c1` was run?
**A.** The Potency was “inactive”.

**Q.** For `Cc1[nH]c2ccccc2c1/C=C/c1ccnc2ccccc12`, which Potency is on record?
**A.** The Potency was “inactive”.

**Q.** `O=C1C(=O)c2ccc(-c3ccccc3)cc2-c2ccccc21` was tested. Which Potency did it give?
**A.** The Potency was “inactive”.

**Q.** `CC(C(=O)OCC(=O)Nc1ccc(S(=O)(=O)N2CCCCC2)cc1)N1C(=O)c2ccccc2C1=O` (stereo unspecified) was tested. Which Potency did it give?
**A.** The Potency was inconclusive: 14.1 µM [inhibitor, full curve, poor fit].

**Q.** For `O=C(Nc1cccc(F)c1F)C1CCN(c2ncccn2)CC1`, which Potency is on record?
**A.** Its Potency is “inactive”.

**Q.** `O=C(Nc1sc2c(c1C(=O)O)CCC2)C(=O)N1CCOCC1` was tested. Which Potency did it give?
**A.** The Potency was inconclusive: 3.16 µM [inhibitor, partial curve, poor fit].

**Q.** With `O=C(NC1(C(F)(F)F)N=C2SCCN2C1=O)c1ccco1` (stereo unspecified) as the compound, how does the Potency read?
**A.** The Potency was inconclusive: 35.5 µM [inhibitor, single point].
